PubChem BioAssay AID485314 (National Center for Advancing Translational Sciences (NCATS), 2010)
The campaign covered roughly 340,000 compounds. About 4,500 (1.3%) were called active. Inconclusive means that the source gave no clear call. Such entries were picked first, then a sample of the others. The call rests on the fitted dose curve; in most records, active means well fitted inhibition curve with a large enough effect; inconclusive means small, poorly fitted or top-dose-only effect, or another doubt; inactive means no such curve, though single readings can be large or run the other way. Potencies beside an inconclusive call are fits to weak or partial responses and may not hold up.

These molecules were tested against DNA polymerase beta (Homo sapiens) (UniProt P06746) (assay: qHTS Assay for Inhibitors of DNA Polymerase Beta). Settings: Pol beta primer extension/strand displacement, fluorescence kinetic; activity change, negative = inhibition: at 114 µM (top of the series).
Summary of the method: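 Homogeneous kinetic assay of primer extension and strand displacement by 10 nM Pol beta, preincubated 15 min at room temperature with compound before 50 nM substrate (final) was added. Read at 0 and 10 min; four-parameter Hill fit.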
On the % scale 0 is the no-effect control and ±100 the full control effect; potency means the concentration at half of the fitted maximal effect.

Activity change, negative = inhibition, inactive:
O=c1cc(-c2ccc(F)cc2)[nH][nH]1 1.78%
CC(=O)Nc1ccc2nc(NC(=O)COc3ccc([N+](=O)[O-])cc3)sc2c1 4.54%

Activity change, negative = inhibition, inconclusive:
CC(=O)N1CCCc2ccc(NS(=O)(=O)c3ccc(C)c(C)c3)cc21 -33.6% [inhibitor]

Potency, active:
CC[C@@H](C(=O)[C@@H](C)[C@@H](O)[C@H](C)CCc1ccc(C)c(O)c1C(=O)O)[C@H]1O[C@](CC)([C@H]2CC[C@](O)(CC)[C@H](C)O2)C[C@@H]1C 22.4 µM
N#Cc1ccc2c(c1)C[C@]1(c3ccsc3)Oc3c(c(=O)oc4ccc(F)cc34)C2O1 11.2 µM

Potency, inconclusive:
CC(C)CCn1c2ccccc2c2cc(CC(N)=O)ccc21 31.6 µM [inhibitor, partial curve]
Fc1ccc(-c2nnc3ccc(N4CCc5ccccc5C4)nn23)cc1 31.6 µM [inhibitor, partial curve]
CCC1S/C(=N/N=C/c2ccco2)NC1=O (configuration not stated) 89.1 µM [inhibitor, single point]
COC(=O)c1ccc(N2CCN(S(=O)(=O)c3c(C)cc(C)cc3C)CC2)c([N+](=O)[O-])c1 15.8 µM [inhibitor, partial curve]
Cc1ccc2nc(SCC(=O)c3ccc(O)cc3O)[nH]c2c1 89.1 µM [inhibitor, single point]
O=C(CCCN1C(=O)/C(=C/c2ccc(F)cc2)SC1=S)NCCCn1ccnc1 4.47 µM [inhibitor, full curve, poor fit]
CCC(C)[C@H](NC(=O)OC(C)(C)C)c1nnc(SCc2c(C)[nH]c(=O)[nH]c2=O)o1 (some centres not stated) 5.01 µM [inhibitor, full curve, poor fit]
Cc1ccccc1C(=O)N1CCN(c2ccc(NC(=O)c3ccc4c(c3)OCO4)cc2)CC1 2.24 µM [inhibitor, partial curve, poor fit]
Cc1ccc(OC(C)C(=O)Nc2ccccc2C(=O)NCc2cccnc2)cc1C (configuration not stated) 3.98 µM [inhibitor, full curve, poor fit]
COc1cc(-c2nc3sccn3c2Nc2cccc(C)c2)ccc1O 89.1 µM [inhibitor, single point]
CCN(CCCNC(=O)c1nn(-c2ccc(C)cc2)c(=O)c2c1c1ccccc1n2C)c1ccccc1 20 µM [inhibitor, single point]
Cc1cc2cc3c(N)[nH]nc3nc2cc1C 79.4 µM [inhibitor, single point]

Already shown: an excerpt of the list.
Potency, inconclusive:
O=C(CCCN1C(=O)/C(=C/c2ccc(F)cc2)SC1=S)NCCCn1ccnc1 4.47 µM [inhibitor, full curve, poor fit]
CCC(C)[C@H](NC(=O)OC(C)(C)C)c1nnc(SCc2c(C)[nH]c(=O)[nH]c2=O)o1 (some centres not stated) 5.01 µM [inhibitor, full curve, poor fit]
